{"source": "the supplement of paper PMC7024190", "note": "Structures can show the parent of a compound that is named as a salt. The list shows a part of the results. This data set is noisy: repeats of one test often differ as much as different tests do.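 Human embryonic kidney cells were transiently transfected with a plasmid bearing a Renilla luciferase gene under the HSV-TK promoter. This first-round screen tests roughly ten thousand compounds for ones that increase reporter output.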"}
{"tested_on": "HEK 293FT", "experiment": "log relative Renilla luciferase luminescence (reporter expression vs reference, reference not stated) (log (base not stated)); higher = higher recombinant reporter expression", "details": "10 µM; time after transfection 48 h"}
{"compound": "CC[C@@H](CO)NC(=O)[C@@H]1C=C2c3cccc4[nH]cc(c34)C[C@H]2N(C)C1", "note": "[Methylergometrine maleate]", "log": 0.0159}
{"compound": "C[C@@H]1C[C@@H]([C@H](O)CC2CC(=O)NC(=O)C2)C(=O)[C@@H](C)C1", "note": "[Cycloheximide]", "log": -1.02}
{"compound": "Cc1cc(C(C#N)c2ccc(Cl)cc2)c(Cl)cc1NC(=O)c1cc(I)cc(I)c1O", "note": "(stereo unspecified) [Closantel]", "log": -1.82}
{"compound": "O=c1[nH]oc2c1CCNC2", "note": "[THIP Hydrochloride]", "log": 0.0542}
{"compound": "NCC1(CC(=O)O)CCCCC1", "note": "[Gabapentin]", "log": -0.044}
{"compound": "C=C1CC[C@@]2(O)[C@H]3Cc4ccc(O)c5c4[C@@]2(CCN3CC2CC2)[C@H]1O5", "note": "[Nalmefene hydrochloride]", "log": -0.0173}
{"compound": "O=[N+]([O-])O[C@H]1CO[C@H]2[C@@H]1OC[C@H]2O[N+](=O)[O-]", "note": "[Isosorbide dinitrate]", "log": 0.172}
{"compound": "O=C(CCCN1CCC2(CC1)C(=O)NCN2c1ccccc1)c1ccc(F)cc1", "note": "[Spiperone]", "log": -0.0173}
{"compound": "CC(N)C(O)c1ccccc1", "note": "(stereo unspecified) [Phenylpropanolamine hydrochloride]", "log": -0.0382}
{"compound": "CCOC(=O)c1cncn1[C@H](C)c1ccccc1", "note": "[Etomidate]", "log": -0.00193}
{"compound": "CC(O)(CS(=O)(=O)c1ccc(F)cc1)C(=O)Nc1ccc(C#N)c(C(F)(F)F)c1", "note": "(stereo unspecified) [Bicalutamide]", "log": -0.012}
{"compound": "CC(C)c1cccc(C(C)C)c1O", "note": "[Propofol]", "log": 0.154}
{"compound": "C[C@]12CC[C@H](O)C[C@H]1CC[C@@H]1[C@@H]2CC[C@]2(C)[C@@H](C3=CC(=O)OC3)CC[C@]12O", "note": "[Digitoxigenin]", "log": -1.07}
{"compound": "CN1C[C@H](CNC(=O)OCc2ccccc2)C[C@@H]2c3cccc4c3c(cn4C)C[C@H]21", "note": "[Metergoline]", "log": -1.38}
{"compound": "CC(=O)O[C@H]1CC[C@@]2(C)C(=CC[C@@H]3[C@@H]2CC[C@]2(C)C(=O)CC[C@@H]32)C1", "note": "[Dehydroisoandosterone 3-acetate]", "log": 0.154}
{"compound": "O=C(NCNC(=O)NC1C(=O)NC(=O)N1CO)NC1C(=O)NC(=O)N1CO", "note": "(stereo unspecified) [Imidurea]", "log": 0.0669}
{"compound": "Oc1ccc2c3c1O[C@H]1[C@@H](O)CC[C@@]4(O)[C@@H](C2)N(CC2CCC2)CC[C@]314", "note": "[Nalbuphine hydrochloride]", "log": 0.0422}
{"compound": "COc1cc2c(c(OC)c1OC)-c1ccc(OC)c(=O)cc1[C@@H](NC(C)=O)CC2", "note": "[Colchicine]", "log": 0.093}
{"compound": "CCCCCC[C@H]1C(=O)O[C@H](C)[C@H](NC(=O)c2cccc(NC=O)c2O)C(=O)O[C@@H](C)[C@@H]1OC(=O)CC(C)C", "note": "[Antimycin A]", "log": -1.22}
{"compound": "c1ccc2c(c1)OCC(C1=NCCN1)O2", "note": "(stereo unspecified) [Idazoxan hydrochloride]", "log": 0.0842}
{"compound": "CC[N+]1(C)CCCC(OC(=O)C(O)(c2ccccc2)c2ccccc2)C1", "note": "(stereo unspecified) [Pipenzolate bromide]", "log": 0.0554}
{"compound": "O=c1c2ccccc2[se]n1-c1ccccc1", "note": "[Ebselen]", "log": -1.39}
{"compound": "CC(=O)O[C@H]1C[C@@H]2CC[C@@H]3[C@H](CC[C@@]4(C)[C@H]3C[C@H]([N+]3(C)CCCCC3)[C@@H]4OC(C)=O)[C@@]2(C)C[C@@H]1[N+]1(C)CCCCC1", "note": "[Pancuronium bromide]", "log": -0.058}
{"compound": "CCCC(C)C1(CC)C(=O)NC(=O)NC1=O", "note": "(stereo unspecified) [Pentobarbital]", "log": -0.155}
{"compound": "C[C@]12C[C@H]3S[C@H]3C[C@@H]1CC[C@@H]1[C@@H]2CC[C@]2(C)[C@@H](O)CC[C@@H]12", "note": "[Epitiostanol]", "log": -0.0407}
{"compound": "COP(=O)(OC)C(O)C(Cl)(Cl)Cl", "note": "(stereo unspecified) [Trichlorfon]", "log": -0.0759}
{"compound": "C=CCN1CC[C@]23c4c5ccc(O)c4O[C@H]2C(=O)CC[C@@]3(O)[C@H]1C5", "note": "[Naloxone hydrochloride]", "log": -0.0188}
{"compound": "C(#CCN1CCCC1)CN1CCCC1", "note": "[Tremorine dihydrochloride]", "log": -0.403}
{"compound": "C[C@]12CCC(=O)C=C1C=C[C@@H]1[C@@H]2CC[C@@]2(C)[C@H]1CC[C@@]2(O)CCC(=O)O", "note": "[Canrenoic acid potassium salt]", "log": 0.0956}
{"compound": "C#C[C@]1(O)CC[C@H]2[C@@H]3CCC4=CC(=O)CCC4=C3C=C[C@@]21CC", "note": "[Gestrinone]", "log": -0.415}
{"compound": "CN1[C@@H]2C[C@@H](OC(=O)[C@H](CO)c3ccccc3)C[C@H]1[C@@H]1O[C@@H]12", "note": "[Scopolamine hydrochloride]", "log": -0.0393}
{"compound": "NCC(CC(=O)O)c1ccc(Cl)cc1", "note": "(racemic) [Baclofen (R,S)]", "log": -0.0311}
{"compound": "N[C@@H]1C[C@H]1c1ccccc1", "note": "[Tranylcypromine hydrochloride]", "log": 0.23}
{"compound": "O=C1CC[C@@]2(O)[C@H]3Cc4ccc(O)c5c4[C@@]2(CCN3CC2CC2)[C@H]1O5", "note": "[Naltrexone hydrochloride dihydrate]", "log": 0.0822}
{"compound": "CN[C@@H]1[C@@H](O)[C@@H](O[C@@H]2[C@@H](O)[C@H](O[C@H]3O[C@H](CN)CC[C@H]3N)[C@@H](N)C[C@H]2N)OC[C@]1(C)O.CN[C@@H]1[C@@H](O)[C@@H](O[C@@H]2[C@@H](O)[C@H](O[C@H]3O[C@H]([C@@H](C)N)CC[C@H]3N)[C@@H](N)C[C@H]2N)OC[C@]1(C)O.CN[C@@H]1[C@@H](O)[C@@H](O[C@@H]2[C@@H](O)[C@H](O[C@H]3O[C@H]([C@@H](C)NC)CC[C@H]3N)[C@@H](N)C[C@H]2N)OC[C@]1(C)O", "note": "[Gentamicine sulfate]", "log": 0.03}
{"compound": "CC(NC(C)(C)C)C(=O)c1cccc(Cl)c1", "note": "(stereo unspecified) [Bupropion hydrochloride]", "log": -0.0681}
{"compound": "CN1CCC2(C)c3cc(O)ccc3N(C)C12", "note": "(single isomer, unassigned; (-)) [(-)-Eseroline fumarate salt]", "log": 0.0511}
{"compound": "CC1OC(OC2/C=C/C=C/C=C/C=C/CC/C=C/C=C/[C@H](C)[C@@H](O)[C@@H](C)[C@H](C)OC(=O)CC(O)CC(O)CC(O)CCC(O)C(O)C[C@]3(O)CC(O)C(C(=O)O)C(C2)O3)C(O)C(N)C1O", "note": "(stereo partly specified) [Nystatine]", "log": 0.0241}
{"compound": "NCCCNCCSP(=O)(O)O", "note": "[Amifostine]", "log": 0.00934}
{"compound": "NCCC(O)C(=O)NC1CC(N)C(OC2OC(CN)C(O)[C@H](O)[C@@H]2N)[C@H](OC2O[C@H](CO)[C@@H](O)[C@@H]2O)[C@@H]1O", "note": "(stereo partly specified) [Butirosin disulfate salt]", "log": 0.157}
{"compound": "O=c1[nH]c2ccccc2n1C1CCN(CCCC(c2ccc(F)cc2)c2ccc(F)cc2)CC1", "note": "[Pimozide]", "log": -0.00821}
{"compound": "C[C@]12CC[C@@H](O)C[C@H]1CC[C@@H]1[C@@H]2CC[C@]2(C)C(=O)CC[C@@H]12", "note": "[3-alpha-Hydroxy-5-beta-androstan-17-one]", "log": 0.109}
{"compound": "C[C@@H]1O[C@@H](O[C@@H]2C=C3CC[C@@H]4[C@H](CC[C@]5(C)[C@@H](c6ccc(=O)oc6)CC[C@]45O)[C@@]3(C)CC2)[C@H](O)[C@H](O)[C@H]1O", "note": "[Proscillaridin A]", "log": -1.09}
{"compound": "C#CCN(C)[C@H](C)Cc1ccccc1", "note": "[Selegiline hydrochloride]", "log": 0.185}
{"compound": "CN(C)C(=O)Oc1cccc([N+](C)(C)C)c1", "note": "[Neostigmine bromide]", "log": 0.0115}
{"compound": "CNC(=O)Oc1ccc2c(c1)[C@]1(C)CCN(C)[C@@H]1N2C", "note": "[Eserine sulfate, physostigmine sulfate]", "log": -0.628}
{"compound": "COc1ccc(C(CN(C)C)C2(O)CCCCC2)cc1", "note": "(stereo unspecified) [Venlafaxine]", "log": 0.148}
{"compound": "CCNCC(O)c1cccc(O)c1", "note": "(stereo unspecified) [Etilefrine hydrochloride]", "log": -0.0312}
{"compound": "CC(C)(N)Cc1ccccc1", "note": "[Phentermine hydrochloride]", "log": -0.182}
{"compound": "CN1[C@@H]2CC[C@H]1C[C@@H](OC(=O)C(CO)c1ccccc1)C2", "note": "(stereo partly specified) [Atropine sulfate monohydrate]", "log": -0.098}
{"compound": "CC(C)C[C@H]1C(=O)N2CCC[C@H]2[C@]2(O)O[C@](NC(=O)[C@@H]3C=C4c5cccc6[nH]c(Br)c(c56)C[C@H]4N(C)C3)(C(C)C)C(=O)N12", "note": "[Bromocryptine mesylate]", "log": -0.0719}
{"compound": "CCC1=C[C@H]2CN3CCc4c([nH]c5ccccc45)[C@](C(=O)OC)(C2)[C@H]13", "note": "[Catharanthine]", "log": 0.0641}
{"compound": "CNC(C)(C)Cc1ccccc1", "note": "[Mephentermine hemisulfate]", "log": -0.0609}
{"compound": "C[C@]12CCC(=O)C(O)=C1CC[C@@H]1[C@@H]2CC[C@]2(C)C(=O)CC[C@@H]12", "note": "[Formestane]", "log": 0.101}
{"compound": "CN1C(=O)CCS(=O)(=O)C1c1ccc(Cl)cc1", "note": "(stereo unspecified) [Chlormezanone]", "log": -0.00526}
{"compound": "C[C@]12COC(=O)C[C@@H]1CC[C@@H]1[C@@H]2CC[C@@]2(C)[C@H]1CC[C@]2(C)O", "note": "[Oxandrolone]", "log": -0.137}
{"compound": "O=P1(N(CCCl)CCCl)NCCCO1", "note": "(stereo unspecified) [Cyclophosphamide]", "log": 0.1}
{"compound": "C=C1C[C@@H]2[C@H](CC[C@]3(C)C(=O)CC[C@@H]23)[C@@]2(C)C=CC(=O)C=C12", "note": "[Exemestane]", "log": 0.0207}
{"compound": "CC(=O)[C@H]1CC[C@H]2[C@@H]3CC[C@H]4C[C@H](O)CC[C@]4(C)[C@H]3C(=O)C[C@]12C", "note": "[Alfaxalone]", "log": 0.0914}
{"compound": "CCC1(C)CC(=O)NC(=O)C1", "note": "[Bemegride]", "log": 0.131}
{"compound": "CCCC(C)(COC(N)=O)COC(=O)NC(C)C", "note": "(stereo unspecified) [Carisoprodol]", "log": -0.0946}
{"compound": "OC(c1ccccc1)(c1ccccc1)C1CCNCC1", "note": "[Azacyclonol]", "log": -0.0223}
{"compound": "C[N+]1(C)CCCC(OC(=O)C(O)(c2ccccc2)c2ccccc2)C1", "note": "(stereo unspecified) [Mepenzolate bromide]", "log": 0.0221}
{"compound": "C[C@@H]1CN([C@H]2CC[C@](C#N)(c3ccc(F)cc3)CC2)CC[C@]1(C(=O)O)c1ccccc1", "note": "[Levocabastine hydrochloride]", "log": -0.0127}
{"compound": "C=CCC1(CC(C)C)C(=O)NC(=O)NC1=O", "note": "[Butalbital]", "log": -0.0555}
{"compound": "O=C(CCCN1CCC(n2c(=O)[nH]c3ccccc32)CC1)c1ccc(F)cc1", "note": "[Benperidol]", "log": 0.0824}
